Patent US20170128412A1, “SYSTEM AND METHOD FOR IMPROVED BLOOD CIRCULATION AND MAINTAINING MITOCHONDRIAL ENERGY PRODUCTION” (priority 2015, published 2017)

Assay: Linoleate peroxidative reaction inhibition (AAPH, linoleate micellar solution)
Assay type: biochemical
Settings: specimen 25 μM; one hour, room temperature
Protocol: Chart 4 indicates the linoleate peroxidative reaction inhibition action of tocotrienol, a-tocopherol, and Coenzyme Q10. The linoleate micellar solution comprised 300mM linoleate, 5 mM 2,2′-Azobis(2-amidinopropane) dihydrochloride (AAPH), and a specimen (tocotrienol, α-tocopherol, or Coenzyme Q10) dissolved in 0.3% Lubrol Px—20 mM sodium phosphate buffer (pH 7.4). The reaction composition reacted at room temperature for one hour, and then 0.5 ml of methanol was added to the composition, and then 2.0 ml of 70% methanol was added to the composition. The absorbance measurement was conducted at 234 nm.

Molecule	Absorbance (234 nm)
tocotrienol	1.26
Cc1c(C)c2c(c(C)c1O)CC[C@@](C)(CCC[C@H](C)CCC[C@H](C)CCCC(C)C)O2 [α-Tocopherol, α-tocopherol]	1.26
COC1=C(OC)C(=O)C(C/C=C(\C)CC/C=C(\C)CC/C=C(\C)CC/C=C(\C)CC/C=C(\C)CC/C=C(\C)CC/C=C(\C)CC/C=C(\C)CC/C=C(\C)CCC=C(C)C)=C(C)C1=O [Coenzyme Q10, coenzyme Q10]	2.17
